Measurements as given in article PMC6089211, “Expression and purification of human diacylglycerol kinase α from baculovirus-infected insect cells for structural studies” (PeerJ, 2018).
No constants are given. Whether binding was seen depends on the method and setting.

Amino acid sequences for entries named in this document (tags omitted).
UniProt P23743: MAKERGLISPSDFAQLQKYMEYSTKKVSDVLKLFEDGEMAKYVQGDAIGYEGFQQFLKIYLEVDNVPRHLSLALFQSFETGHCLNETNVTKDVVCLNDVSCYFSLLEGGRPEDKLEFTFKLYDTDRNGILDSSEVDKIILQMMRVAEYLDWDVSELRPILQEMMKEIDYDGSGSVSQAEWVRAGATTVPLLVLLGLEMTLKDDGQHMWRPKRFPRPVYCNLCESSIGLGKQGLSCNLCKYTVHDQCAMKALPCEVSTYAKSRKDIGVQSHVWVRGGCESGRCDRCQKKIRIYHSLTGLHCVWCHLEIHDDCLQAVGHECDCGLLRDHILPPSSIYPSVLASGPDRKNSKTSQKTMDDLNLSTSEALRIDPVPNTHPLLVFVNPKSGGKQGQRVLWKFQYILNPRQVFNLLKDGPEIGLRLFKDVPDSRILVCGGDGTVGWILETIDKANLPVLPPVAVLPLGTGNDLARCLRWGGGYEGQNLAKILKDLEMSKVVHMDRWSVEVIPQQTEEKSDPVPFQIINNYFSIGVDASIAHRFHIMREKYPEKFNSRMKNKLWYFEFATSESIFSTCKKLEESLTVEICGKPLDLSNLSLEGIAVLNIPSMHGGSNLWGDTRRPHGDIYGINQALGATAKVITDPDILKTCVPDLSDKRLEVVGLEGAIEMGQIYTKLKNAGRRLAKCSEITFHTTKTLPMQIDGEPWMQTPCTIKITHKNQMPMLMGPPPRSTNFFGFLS

Columns and labels:
[1] = target: full-length human diacylglycerol kinase α (aa 1–735) with N-terminal His×6 tag (human) (UniProt P23743); experiment: SEC; Superdex 200 16/60; Ni-affinity fractions of DGKα; 20 mM Tris–HCl pH 7.4, 200 mM NaCl, 3 mM CaCl2, 3 mM MgCl2, 0.5 mM dithiothreitol, 5% glycerol; calibrated with gel filtration standards; single peak at 73.5 mL; both purified
[2] = target: full-length human diacylglycerol kinase α (aa 1–735) with N-terminal His×6 tag (human) (UniProt P23743); experiment: SEC; Superdex 200 16/60; 15 mL of the 50 mM imidazole Ni-affinity fraction concentrated to 4 mL with a centrifugal filter (Amicon Ultra-15); 20 mM Tris-HCl pH 7.4, 200 mM NaCl, 3 mM CaCl2, 3 mM MgCl2, 0.5 mM DTT, 5% glycerol; both purified

full-length human diacylglycerol kinase α (aa 1–735) with N-terminal His×6 tag (from UniProt P23743 1-735) (enzyme)
binding [1]: no binding
binding [2]: no binding
